Source: PubChem BioAssay AID1159578 (Peter MacCallum Cancer Centre, 2015)

Test: 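Knock-downs that alter how fast lymphatic endothelial cells migrate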 (primary screen)
Cell system: human lymphatic endothelial cells
Knock-down reagent: siRNA pool against human genes, 40 nM
Duration: 48 h after transfection
Measured: 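Cells stained with dye and imaged after a scratch; covered wound area and nuclei counted, duplicates averaged, migration set against mock wells and turned into a robust z-score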
Direction: migration robust z-score: higher = faster migration into the scratch; nuclei per well: higher = more cells in the well
Active means: 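Pools averaging fewer than 3300 nuclei are never called; remaining pools count as changed when migration robust z lies outside -2 to 2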
Calls: active = migration changed; inactive = no migration change, or too few cells
The whole screen tested about 18,000 reagents; shown is an unselected part. Of all reagents, about 1,030 (5.7%) are marked active. 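Inactive calls also include pools with fewer than 3300 nuclei, whose migration was not assessed.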 The raw values are shown without normalisation. Unmarked entries are inactive. Further read-outs or replicates are left out here.

CD52 → migration robust z-score = -1.07; nuclei per well, duplicate mean = 5922
EIF2B3 → migration robust z-score = -0.02; nuclei per well, duplicate mean = 5962
XPNPEP2 → migration robust z-score = 0.28; nuclei per well, duplicate mean = 3882
SCGB3A2 → migration robust z-score = 0.18; nuclei per well, duplicate mean = 5603
MAP3K7CL → migration robust z-score = 1.15; nuclei per well, duplicate mean = 4598
SLITRK2 → migration robust z-score = 0.86; nuclei per well, duplicate mean = 6789

The list goes on (2 carried over from the part before).
MAP3K7CL → migration robust z-score = 1.15; nuclei per well, duplicate mean = 4598
SLITRK2 → migration robust z-score = 0.86; nuclei per well, duplicate mean = 6789
SCFD2 → migration robust z-score = -0.85; nuclei per well, duplicate mean = 5208
AMER1 → migration robust z-score = -0.76; nuclei per well, duplicate mean = 6866
CHRFAM7A → migration robust z-score = -0.73; nuclei per well, duplicate mean = 4873
GPR143 → migration robust z-score = -0.34; nuclei per well, duplicate mean = 5850
ARMC3 → migration robust z-score = -0.17; nuclei per well, duplicate mean = 5023
HLA-G → migration robust z-score = -0.1; nuclei per well, duplicate mean = 4153
VSTM2A → migration robust z-score = 0.02; nuclei per well, duplicate mean = 6492
TNN → migration robust z-score = 0.1; nuclei per well, duplicate mean = 6306
